Laboratory results published in US20090099169A1, “Benzofuran Compounds As EP1 Receptor Antagonists” (GLAXO GROUP LIMITED, priority 2006, published 2009).
Structures can show the parent of a compound that is named as a salt. Some of these results come from one statement about several compounds together.

Biological target: T1, human EP1 receptor (Homo sapiens, UniProt P34995)
T1 sequence (P34995 1-402): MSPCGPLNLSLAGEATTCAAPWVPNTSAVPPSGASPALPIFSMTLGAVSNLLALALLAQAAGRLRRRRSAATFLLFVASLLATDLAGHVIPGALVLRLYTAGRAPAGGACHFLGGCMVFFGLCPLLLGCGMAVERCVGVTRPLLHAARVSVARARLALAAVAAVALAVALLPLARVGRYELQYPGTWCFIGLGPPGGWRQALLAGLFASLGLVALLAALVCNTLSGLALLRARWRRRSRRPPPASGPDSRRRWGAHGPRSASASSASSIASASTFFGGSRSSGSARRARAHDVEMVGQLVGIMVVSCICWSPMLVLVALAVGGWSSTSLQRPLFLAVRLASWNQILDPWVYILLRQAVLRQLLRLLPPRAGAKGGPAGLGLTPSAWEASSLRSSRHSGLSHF
Assay: Binding assay for the human prostanoid EP1 receptor (radioligand competition)
Set-up: expressed in transfected cells; host or cells: CHO-K1 (membranes)
Settings: CHO-K1 membranes; [3H]-PGE2 for Examples 1-17, 19, 33, 34, 60 and 61, 3-{2-[5-Bromo-2-(2,4-difluorobenzyloxy)-phenyl]-5-methyl-pyrrol-1-yl}-6-[3H3-methoxy]methoxy-benzoic acid for the remaining; averages of a number of experiments
Method: Compound potencies are determined using a radioligand binding assay. In this assay compound potencies are determined from their ability to compete with tritiated prostaglandin E2 ([^3H]-PGE2) for binding to the human EP1 receptor.
This assay utilises Chinese hamster ovary-K1 (CHO-K1) cells into which a stable vector containing the EP1 cDNA has previously been transfected. Cells are cultured in suitable flasks containing culture medium such as DMEM:F-12 supplemented with 10% v/v foetal calf serum, 2 mM L-glutamine, 0.25 mg/ml geneticin, 10 μg/ml puromycin and 10 μM indomethacin.
Cells are detached from the culture flasks by incubation in calcium and magnesium free phosphate buffered saline containing 1 mM disodium ethylenediaminetetraacetic acid (Na2EDTA) and […] indomethacin for 5 min. The cells are isolated by centrifugation at 250×g for 5mins and suspended in an ice cold buffer such as 50 mM Tris, 1 mM Na2EDTA, 140 mM NaCl, 10 μM indomethacin (pH 7.4). The cells are homogenised using a Polytron tissue disrupter (2×10 s burst at full setting), centrifuged at 48,000×g for 20mins and the pellet containing the membrane fraction is washed (optional) three times by suspension and centrifugation at 48,000×g for 20mins. The final membrane pellet is suspended in an assay buffer such as 10 mM 2-[N-morpholino]ethanesulphonic acid, 1 mM Na2EDTA, 10 mM MgCl2 (pH 6). Aliquots are frozen at −80° C. until required.
(§1) For the binding assay the cell membranes, competing compounds and [^3H]-PGE2 (3 nM final assay concentration) are incubated in a final volume of 100 μl for 30 min at 30° C. All reagents are prepared in assay buffer. Reactions are terminated by rapid vacuum filtration over GF/B filters using a Brandell cell harvester. The filters are washed with ice cold assay buffer, dried and the radioactivity retained on the filters is measured by liquid scintillation counting in Packard TopCount scintillation counter.
The data are analysed using non linear curve fitting techniques to determine the concentration of compound producing 50% inhibition of specific binding (IC50).
Alternatively a similar assay may be carried out using 3-{2-[5-Bromo-2-(2,4-difluoro-benzyloxy)-phenyl]-5-methyl-pyrrol-1-yl}-6-[^3H3-methoxy]methoxy-benzoic acid instead of [^3H]-PGE2.
For the binding assay using 3-{2-[5-Bromo-2-(2,4-difluoro-benzyloxy)-phenyl]-5-methyl-pyrrol-1-yl}-6-[^3H3-methoxy]methoxy-benzoic acid instead of [^3H]-PGE2 the assay is carried out using a similar procedure to that described above using [^3H]-PGE2 with the following changes:
as §1, with “The” for “For the binding assay the”, “3-{2-[5-Bromo-2-(2,4-difluoro-benzyloxy)-phenyl]-5-methyl-pyrrol-1-yl}-6-[^3H3-methoxy]methoxy-benzoic acid (0.2” for “[^3H]-PGE2 (3”, “400” for “100”, “45” for “30”, “37°” for “30°”, “water at ambient temperature,” for “ice cold assay buffer,”
The preparation of 3-{2-[5-Bromo-2-(2,4-difluoro-benzyloxy)-phenyl]-5-methyl-pyrrol-1-yl}-6-methoxy-benzoic acid is described in WO 03/101959 and in Hall et al, Biorg. Med. Chem. Lett., 2007, 17, 916-920. The tritiated version may be prepared via conventional routes, e.g. from 3-{2-[5-bromo-2-(2,4-difluoro-benzyloxy)-phenyl]-5-methyl-pyrrol-1-yl}-6-hydroxy-benzoic acid or 3-{2-[5-bromo-2-(2,4-difluoro-benzyloxy)-phenyl]-5-methyl-pyrrol-1-yl}-6-hydroxy-benzoic acid methyl ester.

Structure (SMILES) | pIC50 value (binding assay for the human prostanoid EP1 receptor)
CC(C)c1cc2cc(Cl)cc(Cc3cccc(C(=O)NCC4CCNCC4)n3)c2o1 [Example 47, 6-{[5-Chloro-2-(1-methylethyl)-1-benzofuran-7-yl]methyl}-N-(4-piperidinylmethyl)-2-pyridinecarboxamidehydrochloride] | ≥ 6
Cc1cc(C(=O)NCC2CCNCC2)nn1Cc1cc(C#N)cc2cc(C(C)C)oc12 [Example 46, 1-{[5-Cyano-2-(1-methylethyl)-1-benzofuran-7-yl]methyl}-5-methyl-N-(4-piperidinylmethyl)-1H-pyrazole-3-carboxamide Hydrochloride] | ≥ 6
Cc1cc(C(=O)Nc2ccc(CN3CCC(O)CC3)cc2)nn1Cc1cc(Cl)cc2cc(C(C)C)oc12 [Example 16, 1-{[5-Chloro-2-(1-methylethyl)-1-benzofuran-7-yl]methyl}-N-{4-[(4-hydroxy-1-piperidinyl)methyl]phenyl}-5-methyl-1H-pyrazole-3-carboxamide hydrochloride] | ≥ 6
Cc1cc(C(=O)NN2CCOCC2)nn1Cc1cc(Br)cc2cc(C(C)C)oc12 [Example 18, 1-{[5-Bromo-2-(1-methylethyl)-1-benzofuran-7-yl]methyl}-5-methyl-N-4-morpholinyl-1H-pyrazole-3-carboxamide] | ≥ 6
CC(C)c1cc2cc(Cl)cc(Cc3ccc(C(N)=O)o3)c2o1 [Example 37, 5-{[5-Chloro-2-(1-methylethyl)-1-benzofuran-7-yl]methyl}-2-furancarboxamide] | ≥ 6
CCCc1cc2cc(Cl)cc(Cn3nc(C(=O)O)cc3C)c2o1 [Example 21, 1-[(5-chloro-2-propyl-1-benzofuran-7-yl)methyl]-5-methyl-1H-pyrazole-3-carboxylic Acid] | ≥ 6
CNCc1ccc(NC(=O)c2cc(C)n(Cc3cc(Br)cc4cc(C(C)C)oc34)n2)cc1 [Example 50, 1-{[5-Bromo-2-(1-methylethyl)-1-benzofuran-7-yl]methyl}-5-methyl-N-{4-[(methylamino)methyl]phenyl}-1H-pyrazole-3-carboxamidehydrochloride] | ≥ 6
Cc1cc(NC(=O)[C@H]2CCCO2)nn1Cc1cc(C#N)cc2cc(C(C)C)oc12 [Example 69, (2R)—N-(1-{[5-Cyano-2-(1-methylethyl)-1-benzofuran-7-yl]methyl}-5-methyl-1H-pyrazol-3-yl)tetrahydro-2-furancarboxamide] | ≥ 6
Cc1cc(NC(=O)[C@H]2CC[C@H](O)CC2)nn1Cc1cc(Cl)cc2cc(C(C)C)oc12 [Example 63, trans-N-(1-{[5-chloro-2-(1-methylethyl)-1-benzofuran-7-yl]methyl}-5-methyl-1H-pyrazol-3-yl)-4-hydroxycyclohexanecarboxamide] | ≥ 6
Cc1cc(C(=O)Nc2ccc(CN3CCOCC3)cc2)nn1Cc1cc(Br)cc2cc(C(C)C)oc12 [Example 52, 1-{[5-Bromo-2-(1-methylethyl)-1-benzofuran-7-yl]methyl}-5-mthyl-N-[4-(4-morpholinylmethyl)phenyl]-1H-pyrazole-3-carboxamidehydrochloride] | ≥ 6
CC(C)c1cc2cc(Cl)cc(Cc3ccc(-c4nc5cc(CN(C)C)ccc5[nH]4)o3)c2o1 [Example 11, 1-[2-(5-{[5-Chloro-2-(1-methylethyl)-1-benzofuran-7-yl]methyl}-2-furanyl)-1H-benzimidazol-5-yl]-N,N-dimethylmethanamine Hydrochloride] | ≥ 6
Cc1cc(NC(=O)C(C)C)nn1Cc1cc(C#N)cc2cc(C(C)C)oc12 [Example 68, N-(1-{[5-Cyano-2-(1-methylethyl)-1-benzofuran-7-yl]methyl}-5-methyl-1H-pyrazol-3-yl)-2-methylpropanamide] | ≥ 6
CC(C)c1cc2cc(Cl)cc(Cc3ccc(-c4nc5cc(CN6CCN(C)CC6)ccc5[nH]4)o3)c2o1 [Example 13, 2-(5-{[5-Chloro-2-(1-methylethyl)-1-benzofuran-7-yl]methyl}-2-furanyl)-5-[(4-methyl-1-piperazinyl)methyl]-1H-benzimidazole Hydrochloride] | ≥ 6
Cc1cc(C(=O)O)nn1Cc1cc(S(C)(=O)=O)cc2cc(C(C)C)oc12 [Example 22, 5-methyl-1-{[2-(1-methylethyl)-5-(methylsulfonyl)-1-benzofuran-7-yl]methyl}-1H-pyrazole-3-carboxylic Acid] | ≥ 6
Cc1cc(C(=O)NC2CCOCC2)nn1Cc1cc(Cl)cc2cc(C3CCCCC3)oc12 [Example 29, 1-[(5-Chloro-2-cyclohexyl-1-benzofuran-7-yl)methyl]-5-methyl-N-(tetrahydro-2H-pyran-4-yl)-1H-pyrazole-3-carboxamide] | ≥ 6
Cc1cc(C(=O)NN2CCOCC2)nn1Cc1cc(Cl)cc2cc(C3CCCCC3)oc12 [Example 28, 1-[(5-Chloro-2-cyclohexyl-1-benzofuran-7-yl)methyl]-5-methyl-N-4-morpholinyl-1H-pyrazole-3-carboxamide] | ≥ 6
CC(C)c1cc2cc(Cl)cc(Cc3ccc(C(=O)NCC4CCNCC4)o3)c2o1 [Example 48] | ≥ 6
CC(C)c1cc2cc(Cl)cc(Cc3ccc(C(=O)O)o3)c2o1 [Example 1, 5-{[5-Chloro-2-(1-methylethyl)-1-benzofuran-7-yl]methyl}-2-furancarboxylic Acid] | ≥ 6
Cc1cc(C(=O)Nc2ccc(CN3CCC(O)CC3)cc2)nn1Cc1cc(Br)cc2cc(C(C)C)oc12.Cl [Example 49, 1-{[5-Bromo-2-(1-methylethyl)-1-benzofuran-7-yl]methyl}-N-{4-[(4-hydroxy-1-piperidinyl)methyl]phenyl}-5-methyl-1H-pyrazole-3-carboxamide Hydrochloride] | ≥ 6
Cc1cc(C(=O)NCC2CCOCC2)nn1Cc1cc(Cl)cc2cc(C(C)C)oc12 [Example 61, 1-{[5-Chloro-2-(1-methylethyl)-1-benzofuran-7-yl]methyl}-5-methyl-N-(tetrahydro-2H-pyran-4-ylmethyl)-1H-pyrazole-3-carboxamide] | ≥ 6
CC(C)c1cc2cc(Cl)cc(Cc3ccc(NC(=O)OC(C)(C)C)o3)c2o1 [Example 57, 1,1-Dimethylethyl (5-{[5-chloro-2-(1-methylethyl)-1-benzofuran-7-yl]methyl}-2-furanyl)carbamate] | ≥ 6
CC(C)c1cc2cc(Cl)cc(Cc3cccc(C(N)=O)n3)c2o1 [Example 40, 6-{[5-Chloro-2-(1-methylethyl)-1-benzofuran-7-yl]methyl}-2-pyridinecarboxamide] | ≥ 6
